Assay results reported in article PMC5788269.
These are yes or no findings as the source states them, for the method shown. Some binding calls cover weakened binding; strength is not graded here.

Protein sequences, listed by entry. Tags and fused reporters are not part of them. Lines headed by an entry give the natural chain unless they say otherwise; changes in a name come on top.
UniProt Q06632: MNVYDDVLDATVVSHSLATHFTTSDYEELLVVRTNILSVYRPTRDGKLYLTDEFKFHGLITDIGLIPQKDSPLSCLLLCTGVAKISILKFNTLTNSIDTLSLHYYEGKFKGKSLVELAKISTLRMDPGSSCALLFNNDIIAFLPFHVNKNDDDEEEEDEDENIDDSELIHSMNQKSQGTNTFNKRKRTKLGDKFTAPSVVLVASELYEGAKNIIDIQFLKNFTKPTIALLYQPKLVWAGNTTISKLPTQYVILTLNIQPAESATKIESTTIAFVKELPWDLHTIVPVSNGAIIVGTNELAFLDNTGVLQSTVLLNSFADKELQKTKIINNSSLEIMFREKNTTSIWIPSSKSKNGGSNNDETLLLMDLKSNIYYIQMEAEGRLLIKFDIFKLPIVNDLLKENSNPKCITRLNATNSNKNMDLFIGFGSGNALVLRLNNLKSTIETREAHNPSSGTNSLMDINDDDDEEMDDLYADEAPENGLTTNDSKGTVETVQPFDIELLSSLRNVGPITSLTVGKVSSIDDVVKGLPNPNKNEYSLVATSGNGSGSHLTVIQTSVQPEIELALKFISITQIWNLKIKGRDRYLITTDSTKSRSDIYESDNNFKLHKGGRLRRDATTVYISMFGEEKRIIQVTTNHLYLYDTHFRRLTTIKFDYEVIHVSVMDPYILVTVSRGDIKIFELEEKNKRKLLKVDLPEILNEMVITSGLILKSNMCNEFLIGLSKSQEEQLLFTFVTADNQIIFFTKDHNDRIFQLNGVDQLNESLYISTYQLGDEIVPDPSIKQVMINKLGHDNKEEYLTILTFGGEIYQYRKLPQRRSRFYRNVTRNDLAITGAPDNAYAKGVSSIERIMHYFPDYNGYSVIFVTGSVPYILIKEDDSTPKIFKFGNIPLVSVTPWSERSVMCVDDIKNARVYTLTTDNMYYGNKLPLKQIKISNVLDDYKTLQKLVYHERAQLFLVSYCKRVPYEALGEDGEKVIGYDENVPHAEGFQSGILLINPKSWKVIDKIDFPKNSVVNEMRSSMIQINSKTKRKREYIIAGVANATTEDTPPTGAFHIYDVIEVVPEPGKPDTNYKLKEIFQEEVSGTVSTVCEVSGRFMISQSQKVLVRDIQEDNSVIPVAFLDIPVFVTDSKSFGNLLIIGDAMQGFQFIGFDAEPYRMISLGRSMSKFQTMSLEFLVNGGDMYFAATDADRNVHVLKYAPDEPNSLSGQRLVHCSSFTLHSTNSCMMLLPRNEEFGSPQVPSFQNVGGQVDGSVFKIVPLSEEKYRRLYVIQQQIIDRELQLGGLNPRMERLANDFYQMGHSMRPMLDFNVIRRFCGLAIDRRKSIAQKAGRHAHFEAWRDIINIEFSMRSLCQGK
UniProt P42841: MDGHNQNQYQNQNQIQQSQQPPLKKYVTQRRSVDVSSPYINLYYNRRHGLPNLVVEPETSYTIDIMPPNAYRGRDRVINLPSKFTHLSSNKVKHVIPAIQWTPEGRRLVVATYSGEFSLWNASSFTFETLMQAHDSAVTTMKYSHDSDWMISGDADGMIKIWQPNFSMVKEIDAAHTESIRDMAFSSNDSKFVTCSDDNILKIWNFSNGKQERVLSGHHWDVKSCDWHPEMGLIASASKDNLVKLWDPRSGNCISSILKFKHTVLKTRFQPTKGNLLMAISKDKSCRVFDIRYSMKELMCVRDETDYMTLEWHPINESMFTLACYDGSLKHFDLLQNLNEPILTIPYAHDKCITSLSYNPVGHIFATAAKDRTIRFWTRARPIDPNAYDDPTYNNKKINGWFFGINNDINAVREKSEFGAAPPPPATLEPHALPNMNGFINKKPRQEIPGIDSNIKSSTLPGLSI
UniProt P29468: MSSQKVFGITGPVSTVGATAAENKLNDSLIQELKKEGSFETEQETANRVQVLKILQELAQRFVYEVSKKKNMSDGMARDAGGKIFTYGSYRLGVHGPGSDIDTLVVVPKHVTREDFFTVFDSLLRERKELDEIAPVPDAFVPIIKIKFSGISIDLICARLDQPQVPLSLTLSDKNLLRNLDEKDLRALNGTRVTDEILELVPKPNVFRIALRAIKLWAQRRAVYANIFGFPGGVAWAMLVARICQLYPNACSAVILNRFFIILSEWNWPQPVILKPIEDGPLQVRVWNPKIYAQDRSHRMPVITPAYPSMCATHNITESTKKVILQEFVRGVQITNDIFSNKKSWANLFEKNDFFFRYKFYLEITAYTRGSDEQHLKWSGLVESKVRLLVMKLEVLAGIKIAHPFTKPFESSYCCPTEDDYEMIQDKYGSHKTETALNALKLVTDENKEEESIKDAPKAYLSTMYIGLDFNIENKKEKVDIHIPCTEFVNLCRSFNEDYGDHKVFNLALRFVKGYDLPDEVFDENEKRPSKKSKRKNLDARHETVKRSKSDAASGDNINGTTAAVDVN
UniProt P45976: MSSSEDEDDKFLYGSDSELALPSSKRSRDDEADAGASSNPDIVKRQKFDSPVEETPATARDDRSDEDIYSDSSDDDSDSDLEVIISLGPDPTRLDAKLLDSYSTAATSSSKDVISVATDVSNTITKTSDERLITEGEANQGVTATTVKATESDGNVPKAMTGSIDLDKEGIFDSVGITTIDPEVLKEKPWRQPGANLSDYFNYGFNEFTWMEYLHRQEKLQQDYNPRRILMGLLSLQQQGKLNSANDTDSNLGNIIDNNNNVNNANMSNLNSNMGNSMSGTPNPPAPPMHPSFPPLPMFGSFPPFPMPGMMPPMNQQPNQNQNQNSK
UniProt Q06102: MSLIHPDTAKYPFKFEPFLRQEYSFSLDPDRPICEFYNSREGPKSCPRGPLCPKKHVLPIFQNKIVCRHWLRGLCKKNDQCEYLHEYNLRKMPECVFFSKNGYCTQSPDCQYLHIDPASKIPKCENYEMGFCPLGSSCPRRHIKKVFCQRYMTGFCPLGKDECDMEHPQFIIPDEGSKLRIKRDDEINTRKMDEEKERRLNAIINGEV

Target: polymerase module of CPF (recombinant; Cft1, Pfs2, Pap1, Fip1, Yth1) (yeast) (UniProt Q06632+P42841+P29468+P45976+Q06102)
Experiment: pull-down; polymerase module immobilized, incubated with purified MBP, CF IA or Rna14–Rna15; Coomassie-stained SDS-PAGE; both purified

binding: binds
B1: Rna14–Rna15 subcomplex of CF IA (complex, UniProt P25298 1-677; P25299 1-296)
chain 1: MSSSTTPDLLYPSADKVAEPSDNIHGDELRLRERIKDNPTNILSYFQLIQYLETQESYAKVREVYEQFHNTFPFYSPAWTLQLKGELARDEFETVEKILAQCLSGKLENNDLSLWSTYLDYIRRKNNLITGGQEARAVIVKAFQLVMQKCAIFEPKSSSFWNEYLNFLEQWKPFNKWEEQQRIDMLREFYKKMLCVPFDNLEKMWNRYTQWEQEINSLTARKFIGELSAEYMKARSLYQEWLNVTNGLKRASPINLRTANKKNIPQPGTSDSNIQQLQIWLNWIKWERENKLMLSEDMLSQRISYVYKQGIQYMIFSAEMWYDYSMYISENSDRQNILYTALLANPDSPSLTFKLSECYELDNDSESVSNCFDKCTQTLLSQYKKIASDVNSGEDNNTEYEQELLYKQREKLTFVFCVYMNTMKRISGLSAARTVFGKCRKLKRILTHDVYVENAYLEFQNQNDYKTAFKVLELGLKYFQNDGVYINKYLDFLIFLNKDSQIKTLFETSVEKVQDLTQLKEIYKKMISYESKFGNLNNVYSLEKRFFERFPQENLIEVFTSRYQIQNSNLIKKLELTYMYNEEEDSYFSSGNGDGHHGSYNMSSSDRKRLMEETGNNGNFSNKKFKRDSELPTEVLDLLSVIPKRQYFNTNLLDAQKLVNFLNDQVEIPTVESTKSG
chain 2: MNRQSGVNAGVQNNPPSRVVYLGSIPYDQTEEQILDLCSNVGPVINLKMMFDPQTGRSKGYAFIEFRDLESSASAVRNLNGYQLGSRFLKCGYSSNSDISGVSQQQQQQYNNINGNNNNNGNNNNNSNGPDFQNSGNANFLSQKFPELPSGIDVNINMTTPAMMISSELAKKPKEVQLKFLQKFQEWTRAHPEDAVSLLELCPQLSFVTAELLLTNGICKVDDLIPLASRPQEEASATNNNSVNEVVDPAVLNKQKELLKQVLQLNDSQISILPDDERMAIWDLKQKALRGEFGAF
